# According to US20210261642A1, “SOLUBILITY OF GLP-1 PEPTIDE” (Novo Nordisk A/S, priority 2017, published 2021):
# The source gives many values for each of these; only a part stands here.
# Test: Assay (I): Determination of Solubility (96-well plate, pH 3.0-11.0, organic solvent 0-70% w/w, UV absorption at 280 nm)
# Format: physicochemical
# Method: Assay (I): Determination of Solubility
# 96-Well Plate Preparation
# 96-well plates containing target peptide in a solid form were prepared in one of two ways:
# Method 1 (evaporation): Addition of 100 μl stock solution of said peptide at a concentration of 4-6 mg/ml to each well of a 96-well half area plate (150 μl well size). Subsequently the solvent was evaporated by applying a vacuum until the solvent was completely removed.
# Method 2 (precipitation): Addition of a certain volume of a stock solution of said peptide containing to each well of a 96-well half area plate followed by the addition of a certain volume of concentrated phosphoric acid to obtain a pH of 4.6 followed by addition of a certain volume of ethanol resulting in a final ethanol concentration of 20% v/v. Subsequently the plate was stored at 4° C. for 1 h and then centrifuged at 4,000 rpm for 20 min. Finally the supernatant was removed. The concentration of the stock solution was chosen in a way that the final amount of peptide after supernatant removal was >0.4 mg per well.
# In both cases the stock solution was prepared by adding de-ionized water to a certain amount of powder of said peptide followed by a stepwise addition of small amounts of a concentrated sodium hydroxide solution until said peptide was completely in solution.
# To determine solubility of a target peptide at different pH and organic solvent concentrations, two different buffer systems were used in independent experiments to cover the whole range from pH 3.0 to pH 11.0. Buffer system 1 covers pH 3.0-7.5 and buffer system 2 covers pH 7.5-11.0. For each buffer system 96 different solvent compositions were premixed in the following way: • 1. A low pH buffer (adjusted to either pH 3.0 or pH 7.5) and a high pH buffer (adjusted to either pH 7.5 or pH 11.0) were mixed at 8 different ratios to obtain values between pH 3.0 and pH 7.5 or pH 7.5 and pH 11.0, respectively. The total volume after mixing was 300 μl. • 2. 12 different amounts of organic solvent were then added to these buffers to obtain organic solvent (e.g. ethanol) concentrations between 0 and 70% w/w. • 3. Water was then added to obtain a total weight of 1.0 g of solvent in each well.
# After preparing the 96 different solvent systems, 100 μl of each system was transferred to the 96-well plate containing the solid form of the target peptide (prepared as described in the section “96-well plate preparation”). The plate was then stored at a given temperature (between 5° C. and 70° C.) for a given time on a rotating shaker set to 400 rpm. At regular time intervals the plate was centrifuged (4,000 rpm for 10 min) and a 10 μl sample was taken from each well. The samples were then analysed by UV absorption at 280 nm for peptide quantification. Peptide concentration results are given as UV absorption at 280 nm of the sample subtracted UV absorption at 280 nm of a well comprising 10 μl water.
# The buffers used were as follows: • Buffer system 1 (for the pH range from pH 3.0-7.5)
# • Buffer system 2 (for the pH ranae from pH 7.5-11.0)
# Solubility of liraglutide was determined using Assay (I) described herein. Liraglutide was prepared using Method 1 (evaporation) or Method 2 (precipitation) as described in subsection “96-well plate preparation”.
# [1] = MeCN 44.5% w/w, pH 3.0, 70° C., Method 1
# [2] = MeCN 44.5% w/w, pH 3.0, RT, Method 1
# [3] = MeCN 44.5% w/w, pH 3.6, 5° C., Method 1
# [4] = MeCN 44.5% w/w, pH 3.6, 70° C., Method 1
# [5] = MeCN 44.5% w/w, pH 3.6, RT, Method 1
# [6] = MeCN 44.5% w/w, pH 4.3, 5° C., Method 1
# [7] = MeCN 44.5% w/w, pH 4.3, 70° C., Method 1
# [8] = MeCN 44.5% w/w, pH 4.3, RT, Method 1
# [9] = MeCN 44.5% w/w, pH 4.9, 5° C., Method 1
# [10] = MeCN 44.5% w/w, pH 4.9, 70° C., Method 1
# [11] = MeCN 44.5% w/w, pH 4.9, RT, Method 1
# [12] = MeCN 44.5% w/w, pH 5.6, 5° C., Method 1
# [13] = MeCN 44.5% w/w, pH 5.6, 70° C., Method 1
# [14] = MeCN 44.5% w/w, pH 5.6, RT, Method 1
# [15] = MeCN 44.5% w/w, pH 6.2, 5° C., Method 1
# [16] = MeCN 44.5% w/w, pH 6.2, 70° C., Method 1
# [17] = MeCN 44.5% w/w, pH 6.2, RT, Method 1
# [18] = MeCN 44.5% w/w, pH 6.9, 5° C., Method 1
# [19] = MeCN 44.5% w/w, pH 6.9, 70° C., Method 1
# [20] = MeCN 44.5% w/w, pH 6.9, RT, Method 1
# [21] = MeCN 44.5% w/w, pH 7.5, 5° C., Method 1
# [22] = MeCN 44.5% w/w, pH 7.5, 70° C., Method 1
# [23] = MeCN 44.5% w/w, pH 7.5, RT, Method 1
# [24] = MeCN 44.5% w/w, pH 8.0, 70° C., Method 1 (evaporation)
# [25] = MeCN 44.5% w/w, pH 8.0, RT, Method 1
# [26] = MeCN 44.5% w/w, pH 8.5, 70° C., Method 1 (evaporation)
# [27] = MeCN 44.5% w/w, pH 8.5, RT, Method 1
# [28] = MeCN 44.5% w/w, pH 9.0, 70° C., Method 1 (evaporation)
# [29] = MeCN 44.5% w/w, pH 9.0, RT, Method 1
# [30] = MeCN 44.5% w/w, pH 9.5, 70° C., Method 1 (evaporation)
# [31] = MeCN 44.5% w/w, pH 9.5, RT, Method 1
# [32] = MeCN 44.5% w/w, pH 10.0, 70° C., Method 1 (evaporation)
# [33] = MeCN 44.5% w/w, pH 10.0, RT, Method 1
# [34] = MeCN 44.5% w/w, pH 10.5, 70° C., Method 1 (evaporation)
# [35] = MeCN 44.5% w/w, pH 10.5, RT, Method 1
# [36] = MeCN 44.5% w/w, pH 11.0, 70° C., Method 1 (evaporation)
# [37] = MeCN 44.5% w/w, pH 11.0, RT, Method 1
# [38] = MeCN 50.9% w/w, pH 3.0, 5° C., Method 1
smiles,measurement,setting,value
"CCCCCCCCCCCCCCCC(=O)N[C@@H](CCC(=O)NCCCC[C@H](NC(=O)[C@H](C)NC(=O)[C@H](C)NC(=O)[C@H](CCC(N)=O)NC(=O)CNC(=O)[C@H](CCC(=O)O)NC(=O)[C@H](CC(C)C)NC(=O)[C@H](Cc1ccc(O)cc1)NC(=O)[C@H](CO)NC(=O)[C@H](CO)NC(=O)[C@@H](NC(=O)[C@H](CC(=O)O)NC(=O)[C@H](CO)NC(=O)[C@@H](NC(=O)[C@H](Cc1ccccc1)NC(=O)[C@@H](NC(=O)CNC(=O)[C@H](CCC(=O)O)NC(=O)[C@H](C)NC(=O)[C@@H](N)Cc1cnc[nH]1)[C@@H](C)O)[C@@H](C)O)C(C)C)C(=O)N[C@@H](CCC(=O)O)C(=O)N[C@@H](Cc1ccccc1)C(=O)N[C@H](C(=O)N[C@@H](C)C(=O)N[C@@H](Cc1c[nH]c2ccccc12)C(=O)N[C@@H](CC(C)C)C(=O)N[C@H](C(=O)N[C@@H](CCCNC(=N)N)C(=O)NCC(=O)N[C@@H](CCCNC(=N)N)C(=O)NCC(=O)O)C(C)C)[C@@H](C)CC)C(=O)O [liraglutide, Arg34,Lys26-(N-epsilon-(gamma-L-glutamyl(N-alfa-hexadecanoyl)))-GLP-1(7-37)]",Peptide concentration after 24 h,"MeCN 44.5% w/w, pH 3.0, 5° C., Method 1",0.7 mg/mL
same,Peptide concentration after 5 min,[1],1.2 mg/mL
same,Peptide concentration after 180 min,[1],2.0 mg/mL
same,Peptide concentration after 5 min,[2],0.5 mg/mL
same,Peptide concentration after 180 min,[2],0.9 mg/mL
same,Peptide concentration after 24 h,[2],0.1 mg/mL
same,Peptide concentration after 5 min,[3],0.2 mg/mL
same,Peptide concentration after 180 min,[3],0.6 mg/mL
same,Peptide concentration after 24 h,[3],0.5 mg/mL
same,Peptide concentration after 5 min,[4],0.5 mg/mL
same,Peptide concentration after 180 min,[4],0.8 mg/mL
same,Peptide concentration after 5 min,[5],0.3 mg/mL
same,Peptide concentration after 180 min,[5],0.5 mg/mL
same,Peptide concentration after 24 h,[5],0.0 mg/mL
same,Peptide concentration after 5 min,[6],0.2 mg/mL
same,Peptide concentration after 180 min,[6],0.3 mg/mL
same,Peptide concentration after 24 h,[6],0.3 mg/mL
same,Peptide concentration after 5 min,[7],0.5 mg/mL
same,Peptide concentration after 180 min,[7],0.6 mg/mL
same,Peptide concentration after 5 min,[8],0.2 mg/mL
same,Peptide concentration after 180 min,[8],0.2 mg/mL
same,Peptide concentration after 24 h,[8],0.1 mg/mL
same,Peptide concentration after 5 min,[9],0.2 mg/mL
same,Peptide concentration after 180 min,[9],0.3 mg/mL
same,Peptide concentration after 24 h,[9],0.3 mg/mL
same,Peptide concentration after 5 min,[10],0.4 mg/mL
same,Peptide concentration after 180 min,[10],0.5 mg/mL
same,Peptide concentration after 5 min,[11],0.2 mg/mL
same,Peptide concentration after 180 min,[11],0.2 mg/mL
same,Peptide concentration after 24 h,[11],0.1 mg/mL
same,Peptide concentration after 5 min,[12],0.2 mg/mL
same,Peptide concentration after 180 min,[12],0.6 mg/mL
same,Peptide concentration after 24 h,[12],0.3 mg/mL
same,Peptide concentration after 5 min,[13],1.1 mg/mL
same,Peptide concentration after 180 min,[13],1.4 mg/mL
same,Peptide concentration after 5 min,[14],0.5 mg/mL
same,Peptide concentration after 180 min,[14],0.7 mg/mL
same,Peptide concentration after 24 h,[14],0.1 mg/mL
same,Peptide concentration after 5 min,[15],1.1 mg/mL
same,Peptide concentration after 180 min,[15],1.4 mg/mL
same,Peptide concentration after 24 h,[15],1.1 mg/mL
same,Peptide concentration after 5 min,[16],1.8 mg/mL
same,Peptide concentration after 180 min,[16],2.2 mg/mL
same,Peptide concentration after 5 min,[17],1.4 mg/mL
same,Peptide concentration after 180 min,[17],1.2 mg/mL
same,Peptide concentration after 24 h,[17],0.7 mg/mL
same,Peptide concentration after 5 min,[18],1.4 mg/mL
same,Peptide concentration after 180 min,[18],2.0 mg/mL
same,Peptide concentration after 24 h,[18],1.9 mg/mL
same,Peptide concentration after 5 min,[19],2.7 mg/mL
same,Peptide concentration after 180 min,[19],>4.0 mg/mL
same,Peptide concentration after 5 min,[20],0.9 mg/mL
same,Peptide concentration after 180 min,[20],1.9 mg/mL
same,Peptide concentration after 24 h,[20],1.3 mg/mL
same,Peptide concentration after 5 min,[21],1.7 mg/mL
same,Peptide concentration after 180 min,[21],>4.0 mg/mL
same,Peptide concentration after 24 h,[21],>4.0 mg/mL
same,Peptide concentration after 5 min,[22],>4.0 mg/mL
same,Peptide concentration after 180 min,[22],>4.0 mg/mL
same,Peptide concentration after 5 min,[23],1.3 mg/mL
same,Peptide concentration after 180 min,[23],>4.0 mg/mL
same,Peptide concentration after 24 h,[23],>4.0 mg/mL
same,Peptide concentration after 5 min,[24],3.5 mg/mL
same,Peptide concentration after 180 min,[24],>4.0 mg/mL
same,Peptide concentration after 5 min,[25],1.0 mg/mL
same,Peptide concentration after 180 min,[25],>4.0 mg/mL
same,Peptide concentration after 24 h,[25],>4.0 mg/mL
same,Peptide concentration after 5 min,[26],3.6 mg/mL
same,Peptide concentration after 180 min,[26],>4.0 mg/mL
same,Peptide concentration after 5 min,[27],1.1 mg/mL
same,Peptide concentration after 180 min,[27],3.9 mg/mL
same,Peptide concentration after 24 h,[27],>4.0 mg/mL
same,Peptide concentration after 5 min,[28],2.2 mg/mL
same,Peptide concentration after 180 min,[28],>4.0 mg/mL
same,Peptide concentration after 5 min,[29],0.8 mg/mL
same,Peptide concentration after 180 min,[29],3.5 mg/mL
same,Peptide concentration after 24 h,[29],>4.0 mg/mL
same,Peptide concentration after 5 min,[30],>4.0 mg/mL
same,Peptide concentration after 180 min,[30],>4.0 mg/mL
same,Peptide concentration after 5 min,[31],1.0 mg/mL
same,Peptide concentration after 180 min,[31],>4.0 mg/mL
same,Peptide concentration after 24 h,[31],>4.0 mg/mL
same,Peptide concentration after 5 min,[32],>4.0 mg/mL
same,Peptide concentration after 180 min,[32],>4.0 mg/mL
same,Peptide concentration after 5 min,[33],2.0 mg/mL
same,Peptide concentration after 180 min,[33],>4.0 mg/mL
same,Peptide concentration after 24 h,[33],3.7 mg/mL
same,Peptide concentration after 5 min,[34],>4.0 mg/mL
same,Peptide concentration after 180 min,[34],>4.0 mg/mL
same,Peptide concentration after 5 min,[35],1.1 mg/mL
same,Peptide concentration after 180 min,[35],>4.0 mg/mL
same,Peptide concentration after 24 h,[35],4.0 mg/mL
same,Peptide concentration after 5 min,[36],3.9 mg/mL
same,Peptide concentration after 180 min,[36],>4.0 mg/mL
same,Peptide concentration after 5 min,[37],1.3 mg/mL
same,Peptide concentration after 180 min,[37],>4.0 mg/mL
same,Peptide concentration after 24 h,[37],>4.0 mg/mL
same,Peptide concentration after 5 min,[38],0.8 mg/mL
same,Peptide concentration after 180 min,[38],1.6 mg/mL
same,Peptide concentration after 24 h,[38],1.7 mg/mL
